Data: publication PMC8514468
Results are given in words; binding and its absence hold for the method and conditions named. Binding seen in cells or lysates may run through a third protein. Some entries that bind do so weakly or less than the wild type.

Legend:
[1] = target: T1, Sirt1 (mouse (endogenous in C2C12)) (UniProt Q923E4); assay: co-IP; c2MP cytoplasmic fractions; protein A/G magnetic beads with 10 ug p107-SD9, Sirt1-B7 or IgG-D7 antibody; lysates incubated overnight 4 °C; Western blot for p107 (13354-1-AP) or Sirt1 (D1D7); reciprocal
T1 sequence: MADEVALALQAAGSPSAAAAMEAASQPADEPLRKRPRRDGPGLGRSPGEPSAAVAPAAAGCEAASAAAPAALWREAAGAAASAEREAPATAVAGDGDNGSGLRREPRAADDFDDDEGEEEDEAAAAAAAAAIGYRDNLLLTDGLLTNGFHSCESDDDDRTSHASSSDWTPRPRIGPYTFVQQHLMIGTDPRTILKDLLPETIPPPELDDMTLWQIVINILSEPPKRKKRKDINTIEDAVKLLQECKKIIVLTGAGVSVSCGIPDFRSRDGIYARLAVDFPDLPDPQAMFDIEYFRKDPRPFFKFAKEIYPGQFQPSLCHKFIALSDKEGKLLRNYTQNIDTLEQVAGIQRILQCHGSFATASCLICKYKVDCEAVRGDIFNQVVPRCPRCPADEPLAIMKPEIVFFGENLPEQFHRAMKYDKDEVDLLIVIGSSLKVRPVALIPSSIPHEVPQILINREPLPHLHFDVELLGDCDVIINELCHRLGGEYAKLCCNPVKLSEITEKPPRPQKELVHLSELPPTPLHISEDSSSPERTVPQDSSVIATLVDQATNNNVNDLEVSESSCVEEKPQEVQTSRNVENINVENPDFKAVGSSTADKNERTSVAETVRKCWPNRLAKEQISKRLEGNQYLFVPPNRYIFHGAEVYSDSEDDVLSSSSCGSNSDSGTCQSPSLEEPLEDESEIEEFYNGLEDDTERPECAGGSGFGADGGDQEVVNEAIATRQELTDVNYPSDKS

[2] = target: T1, Sirt1 (mouse (endogenous in C2C12)); assay: co-IP; c2MP whole cell lysates, pre-cleared; protein A/G agarose beads with 5 ug p107-C18, Sirt1-B7 or IgG-D7 antibody, overnight 4 °C; washed 3 times with 50 mM HEPES pH 7.0, 250 mM NaCl, 0.1% Np-40; Western blot for p107-SD9 or Sirt1-D1D7; reciprocal

B1: p107 (Rbl1) (protein, UniProt Q64701 1-1063)
chain: MFEDEPHAEGAAAVAAAREALQALCQELNLDEGSAAEALDDFTAIRGNYSLEGEVIHWLACSLYVACRKSIIPTVGKGVMEGNCVSLTRILRSAKLSLIQFFSKMKKWMDMSNLPQEFRERIERLERNFEVSTVIFKKFEPIFLDIFQNPYEEPPKLPRSRKQRRIPCSVKDLFNFCWTLFVYTKGNFRMIGDDLVNSYHLLLCCLDLIFANAIMCPNRRDLLNPSFKGLPSDFHAPDFKAAEEPPCIIAVLCDLHDGLLVEAKGIKEHYFKPYISKLFDKKILKGECLLDLSSFTDNSKAVNKEYEEYVLTVGDFDERIFLGADAEEEIGTPRKFTADTPFGKLTSQASVECNLQQHFEKKRSFAPSTPLTGRRYLQEKEAVTTPVASATQSVSRLQSIVAGLKSAPSEQLLNIFESCMRNPMGNIIKIVKGIGETFCQHYTQSTDKQPGSHIDFAVNRLKLAEILYYKILETIMVQETRRLHGMDMSVLLEQDIFHKSLMACCLEIVLFAYSSPRTFPWIIEVLDLQPFYFYKVIEVVIRSEEGLSRDMVKHLNSIEEQILESLAWTNNSALWEALHASANRVPSCEEVIFPNNFEIGNGGNVQGHLPMMPMSPIIHPRVKEVRTDSGSLRQDMQPLSPISVHERYSSPAAGSAKRRLFGDDPPKDTLMDKIMAEGTKLKIAPSSVTAESLSISPGQALLTMATTTVTGTTGRKVTVPLHGIANDAGEITLVPISMNPTQESTAESPVSLTAQSLIGTSPKQTHLTKAQDAHLTGVSKPKRTGSLALFYRKVYHLASVRLRDLCLKLDVSNELRRKIWTCFEFTLVHCPDLMKDRHLDQLLLCAFYIMAKVTKEERTFQEIMKSYRNQPQANSHVYRSVLLKSIPGGVVVYNGDCEMTDGDIEDATKTPNCSSEPVKEERGDLIKFYNTVYVGRVKSFALKYDLSNQDHIMDAPPLSPFPHIKQQPGSPRRISQQHSLYVSPHKNGAGLTPRSALLYKFNGSPSKSLKDINNMIRQGEQKTKKRVIAISGDADSPAKRLCQENDDVLLKRLQDVVSERANH
With B1 the binding [1] was “binds” and the binding [2] was “binds”.
